Measurements as given in PMC10163288.
This is one part of the list.

B1: il2ra_site1_3nfp_normal_mot_HHH_b2_02066_af2_000000034_0001_1_16_H_._HHH_b1_04414_0001_0000100003_0000001_0 (protein)
chain: SSSSNEELLELVEEIWELSREGDDEQAREVLEEAKRLAEELGSKAARIFLERLEKLLRLKSSSSS
B2: il2ra_site2_2erj_normal_mot_HHH_b2_05804_000000098_0001_44_58_H_._HHH_b2_01306_af2_0001_0001100019_0000001_0 (protein)
chain: SSSSDEEWEEVAELLVEALELYRNGNPEEAKKVLEEAERIAEELNDEFLKRYVEFARRAASSSSS
B3: il2ra_site1_2b5i_normal_mot_f5ff40796168375b462bec8614a1db4a_0001_1_000000138_0001_53_65_H_._HHH_b1_07617_0001_0000100010_0000001_0_af2pred_dldesign_0_af2pred (protein)
chain: SSSSDLKEDVEALIKKAKELYEEGKKEEAKKLLILARRIAKKAKDEETLKKIDELLKEIEESSSS
B4: il2ra_site1_1z92_sap_12_mot_HHH_b2_00969_af2_000000010_0001_43_57_H_._HHH_b1_02957_0001_0000200009_0000001_0_0001_af2pred_0001_af2pred (protein)
chain: SSSSSDEAKRLSRFIAELAIEFKLTLEDLRELNELALELLQRGYSEEEIEELLHEEAKRLSSSSS
B5: il2ra_site1_3nfp_sap_13_mot_HHH_b2_00334_000000219_0001_1_18_H_._a7b25d948053501ad451c9618b38fcae_0001_0001_0000300026_0000001_0_0001_af2pred_0001_af2pred (protein)
chain: SSSSSDEFREEVEELLEEAKRIEDVREASKLLREALKLALEGDDEEAWKLVEKVIRELARSSSSS
B6: il2ra_site1_2b5i_normal_mot_HHH_b1_02271_000000068_0001_1_16_H_._HHH_b2_04633_af2_0001_0000400024_0000001_0_af2pred_dldesign_0_af2pred (protein)
chain: SSSSSSDLEALEARARELAAAGKRREALELLEKAYKEAAAAGDEEAEERLYELAKELKSSSSSSS
B7: il2ra_site2_3nfp_normal_mot_HHH_b2_05513_000000198_0001_20_37_H_._52c50354b804bec8c3157ba16786ada3_0001_0001_0000200004_0000001_0 (protein)
chain: DELEERLRRSAELAGNPEDAVIFFIALLEVELGDPEEAIELAEEVAKALGDPELERIIEEILHAP
B8: il2ra_site1_2b5i_sap_9_mot_HHH_b1_01419_af2_000000080_0001_42_53_H_._HHH_b1_01907_af2_0001_0000100002_0000001_0_0001_af2pred_0001_af2pred_1 (protein)
chain: SSSSDEVLEEILRLFREASELFRKGNHEEARKLLEEALELAEEFNDEVAFRDVRFMLEKLNSSSS
B9: il2ra_site1_3nfp_normal_mot_46d73865503fbedcaf0f3a45445d594c_0001_af2_000000151_0001_1_12_H_._HEEHE_1219_af2_0001_0000300007_0000001_0 (protein)
chain: DDRRVVERLVERAARSAGVENVEVTIHNGTLHVTVEGDDEAARAVKEAVEDLAERLGISVEYSHK
B10: il2ra_site2_2erj_normal_mot_HHH_b1_05537_000000062_0001_1_19_H_._HHH_b1_00607_0001_0001200011_0000001_0 (protein)
chain: SSSSSDREEVERLLREIEEALEEGDKEKVVELLLEVARLALEIGDEELSYEVYRLMRLNASSSSS
B11: il2ra_site1_3nfp_normal_mot_HHH_b2_00696_000000030_0001_18_34_H_._HHH_b1_05030_0001_0000400016_0000001_0_af2pred_0001_af2pred (protein)
chain: SSSSSSEAEEIARELEQRIREAKSKRERIHLLIKALLIVQELKNKEALEIIEELVKEIRDSSSSS
B12: il2ra_site1_2b5i_normal_mot_HHH_b2_04910_000000118_0001_1_19_H_._HHH_b2_02918_af2_0001_0000300006_0000001_0_af2pred_0001_af2pred (protein)
chain: SSSSSSEKEEARRLLEEADEAFRRGDDEEARKLLEEALQAAEEANNPLLARSIESMLEQVSSSSS
B13: il2ra_site2_2erj_sap_18_mot_HHH_b2_03659_000000135_0001_38_56_H_._HHH_b1_00300_af2_0001_0000100004_0000001_0_0001 (protein)
chain: SSSSSEEEVEELIKEAEQLLEEGDPEKAEEVLSRAFELAYEANDPELAAKVIELIAKIAKSSSSS
B14: il2ra_site2_2erj_sap_17_mot_HHH_b1_05666_000000037_0001_42_55_H_._HHH_b2_00709_0001_0000200006_0000001_0_0001 (protein)
chain: SSSSSDEIHRAYELAEELIKLVQNNDRERFEEISEEFREIVERLKSRSAEEILEWLERHLSSSSS
B15: il2ra_site1_2b5i_sap_26_mot_0e1366a1e871129823ff0d9eb171cf03_0001_1_000000050_0001_36_50_H_._23ebfa62fd02fe94bef511ea015e2715_0001_0001_0000500051_0000001_0_000 … (protein)
chain: SERFIEMVIRALRMGSPVAERAAKNLAKLLKRAGDLELFREFVERLLEETGDPAYEFLLEVLEET
B16: il2ra_site1_1z92_normal_mot_HHH_b1_03515_000000289_0001_1_19_H_._HHH_b1_04173_af2_0001_0000200014_0000001_0 (protein)
chain: SSSSSSEEQAAKAIVRAAVRANRLSEEQKEELEELAKELVERGLDPLEIIKILDRLAARLSSSSS
B17: il2ra_site1_1z92_sap_18_mot_HHH_b1_00368_000000203_0001_23_39_H_._d7cfadeb27be910639eb6e95e3396c32_0001_af2_0001_0000300014_0000001_0_0001 (protein)
chain: SSSSDEELEERVKQFAEELVKELGLDEHAREALEKDAEAAVRLGFSERSIKLALERAARRASSSS
B18: il2ra_site1_3nfp_normal_mot_HHH_b2_04366_af2_000000103_0001_1_19_H_._HHH_b1_03730_af2_0001_0000300009_0000001_0 (protein)
chain: SSSSDESERILEEAEELLKEAAEEGDPRRAQKILREAVRLLSELGNFEAVERLYEFVRELISSSS
B19: il2ra_site1_2b5i_sap_15_mot_HHH_b1_05188_af2_000000065_0001_43_56_H_._HHH_b2_08185_0001_0000400035_0000001_0_0001_af2pred_dldesign_0_af2pred (protein)
chain: SSSSAEVEARRAEVKARAAALLAAGRKREALELLFSAAKEAEEAGREDLYEELYELAKKLSSSSS

molecular target: il2ra, P01589; assay: yeast display titration

Apparent Kd, inactive:
B1 no binding seen
B2 no binding seen
B3 no binding seen
B4 no binding seen
B5 no binding seen
B6 no binding seen
B7 no binding seen
B8 no binding seen
B9 no binding seen
B10 no binding seen
B11 no binding seen
B12 no binding seen
B13 no binding seen
B14 no binding seen
B15 no binding seen
B16 no binding seen
B17 no binding seen
B18 no binding seen
B19 no binding seen

Fetched one by one from the entries so far:
Apparent Kd, inactive:
B13 no binding seen
B6 no binding seen
